{"source": "PubChem BioAssay AID258", "about": "(DTP/NCI, 2004)", "tested_on": "CD2F1 mice, L1210 leukemia sc, survival T/C", "assay": "NCI In Vivo Anticancer Drug Screen. Data for tumor model L1210 Leukemia (subcutaneous) in CD2F1 (CDF1) mice", "conditions": "T/C endpoint: median survival time, higher T/C = longer survival", "method_in_brief": "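Compound given to mice bearing transplantable tumor. Survival or tumor size then recorded. Result expressed relative to vehicle-dosed control group as T/C.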", "key": {"[1]": {"conditions": "dose: 0.25 mg/kg/injection, schedule: Q01DX009 (sc), vehicle: saline"}, "[2]": {"conditions": "dose: 0.5 mg/kg/injection, schedule: Q01DX009 (sc), vehicle: saline"}, "[3]": {"conditions": "dose: 1.0 mg/kg/injection, schedule: Q01DX009 (sc), vehicle: saline"}, "[4]": {"conditions": "dose: 2.0 mg/kg/injection, schedule: Q01DX009 (sc), vehicle: saline"}, "[5]": {"conditions": "dose: 4.0 mg/kg/injection, schedule: Q01DX009 (sc), vehicle: saline"}, "[6]": {"conditions": "dose: 108.0 mg/kg/injection, schedule: Q01DX Z (sc), vehicle: methylcellulose (MC)"}}, "note": "The list shows only some results of the screen, not a fair sample: it gathers tests that were run many times, whatever their T/C, doses with no T/C, and many T/C values between a quarter and a half above the control. Other doses and runs of a compound stand elsewhere. T/C gives the treated animals as a percentage of the vehicle group. Some doses have a count of surviving animals in place of a T/C: the source holds a T/C of zero for them, seemingly a mark for toxic or unscored doses. Some survivor counts are full or nearly so, which does not show that the dose was tolerated: the source hardly ever lists a survival T/C far under the control, and the zero likely stands for such cases as well. Counts of survivors are from the toxicity check (mostly the fifth day) where no day follows; animals may have died later. Schedules are NCI's codes, taken here to give the interval after Q, in days (D) or hours (H), and the number of doses after X. Some doses were run more than once; the results are listed from low to high. Some schedule codes hold Z or #, which are not explained here. For survival time, this PubChem deposit counts one and a half times the control or more as active, and values a quarter to a half above the control carry no call in these data; other NCI protocols may use other cut-offs. Some T/C values carry the count of animals alive at the toxicity check (mostly the fifth day); without a count, all were alive then."}
{"smiles": "CN(N=O)C(=O)N[C@@H](C=O)[C@@H](O)[C@H](O)[C@H](O)CO", "values": [{"measurement": "T/C", "setting": "dose: 50.0 mg/kg/injection, schedule: Q01DX009 (ip), vehicle: other", "result": "129 % of control"}, {"measurement": "T/C", "setting": "dose: 50.0 mg/kg/injection, schedule: Q01DX009 (sc), vehicle: other", "result": "136 % of control"}, {"measurement": "T/C", "setting": "dose: 66.7 mg/kg/injection, schedule: Q01DX009 (sc), vehicle: other", "result": "129 % of control"}, {"measurement": "T/C", "setting": "dose: 100.0 mg/kg/injection, schedule: Q01DX009 (sc), vehicle: other", "result": "137 and 140 % of control"}, {"measurement": "T/C", "setting": "dose: 150.0 mg/kg/injection, schedule: Q01DX009 (sc), vehicle: other", "result": "129 % of control"}, {"measurement": "survivor count", "setting": "dose: 200.0 mg/kg/injection, schedule: Q01DX009 (ip), vehicle: other", "result": "5 of 10"}, {"measurement": "survivor count", "setting": "dose: 200.0 mg/kg/injection, schedule: Q01DX009 (sc), vehicle: other", "result": "9 of 10"}]}
{"smiles": "CC[C@]1(O)C[C@H]2CN(CCc3c([nH]c4ccccc34)[C@@](C(=O)OC)(c3cc4c(cc3OC)N(C=O)[C@H]3[C@@](O)(C(=O)OC)[C@H](OC(C)=O)[C@]5(CC)C=CCN6CC[C@]43[C@@H]65)C2)C1", "values": [{"measurement": "survivor count", "setting": "[1]", "result": "2 of 10"}, {"measurement": "survivor count", "setting": "[2]", "result": "2 of 10"}, {"measurement": "survivor count", "setting": "[3]", "result": "4 of 10"}, {"measurement": "survivor count", "setting": "[4]", "result": "3 of 10"}, {"measurement": "T/C", "setting": "dose: 2.5 mg/kg/injection, schedule: Q01DX001 (sc), vehicle: water", "result": "130 % of control [7 of 10 alive]"}, {"measurement": "survivor count", "setting": "[5]", "result": "0 of 10"}, {"measurement": "T/C", "setting": "dose: 5.0 mg/kg/injection, schedule: Q01DX001 (iv), vehicle: water", "result": "130 % of control [8 of 10 alive]"}, {"measurement": "survivor count", "setting": "dose: 5.0 mg/kg/injection, schedule: Q01DX001 (sc), vehicle: water", "result": "6 of 10"}, {"measurement": "survivor count", "setting": "dose: 10.0 mg/kg/injection, schedule: Q01DX001 (iv), vehicle: water", "result": "4 of 10"}, {"measurement": "survivor count", "setting": "dose: 10.0 mg/kg/injection, schedule: Q01DX001 (sc), vehicle: water", "result": "6 of 10"}, {"measurement": "survivor count", "setting": "dose: 1000.0 micrograms/kg/injection, schedule: Q01DX009 (ip), vehicle: saline", "result": "9 of 10"}, {"measurement": "survivor count", "setting": "dose: 1000.0 micrograms/kg/injection, schedule: Q01DX009 (sc), vehicle: saline", "result": "9 of 10"}]}
{"smiles": "Oc1ccc(F)c2cccnc12", "values": [{"measurement": "survivor count", "setting": "dose: 300.0 mg/kg/injection, schedule: Q01DX Z (sc), vehicle: other", "result": "6 of 10"}, {"measurement": "survivor count", "setting": "dose: 500.0 mg/kg/injection, schedule: Q01DX Z (sc), vehicle: other", "result": "4 of 10"}]}
{"smiles": "CC1CCC(NC(=O)N(CCCl)N=O)CC1", "note": "(stereo unspecified)", "values": [{"measurement": "T/C", "setting": "dose: 2.0 mg/kg/injection, schedule: Q01DX009 (ip), vehicle: saline + alcohol", "result": "133 % of control"}, {"measurement": "T/C", "setting": "dose: 4.0 mg/kg/injection, schedule: Q01DX009 (sc), vehicle: saline + alcohol", "result": "125 % of control"}, {"measurement": "T/C", "setting": "dose: 8.0 mg/kg/injection, schedule: Q01DX009 (sc), vehicle: saline + alcohol", "result": "141 % of control"}, {"measurement": "T/C", "setting": "dose: 16.0 mg/kg/injection, schedule: Q01DX009 (sc), vehicle: saline + alcohol", "result": "125 % of control [9 of 10 alive]"}, {"measurement": "T/C", "setting": "dose: 32.0 mg/kg/injection, schedule: Q01DX009 (sc), vehicle: saline + alcohol", "result": "143 % of control"}, {"measurement": "T/C", "setting": "dose: 64.0 mg/kg/injection, schedule: Q01DX009 (sc), vehicle: saline + alcohol", "result": "144 % of control"}, {"measurement": "T/C", "setting": "dose: 128.0 mg/kg/injection, schedule: Q01DX009 (sc), vehicle: saline + alcohol", "result": "145 % of control"}]}
{"smiles": "C[C@]12CCC(=O)C=C1CC[C@@H]1[C@@H]2C(=O)C[C@@]2(C)[C@H]1CC[C@]2(O)C(=O)CO", "values": [{"measurement": "survivor count", "setting": "[6]", "result": "4 of 10"}, {"measurement": "survivor count", "setting": "dose: 180.0 mg/kg/injection, schedule: Q01DX Z (sc), vehicle: methylcellulose (MC)", "result": "4 of 10"}, {"measurement": "survivor count", "setting": "dose: 300.0 mg/kg/injection, schedule: Q01DX Z (sc), vehicle: methylcellulose (MC)", "result": "4 of 10"}, {"measurement": "survivor count", "setting": "dose: 500.0 mg/kg/injection, schedule: Q01DX Z (sc), vehicle: methylcellulose (MC)", "result": "5 of 10"}, {"measurement": "survivor count", "setting": "dose: 833.0 mg/kg/injection, schedule: Q01DX Z (sc), vehicle: methylcellulose (MC)", "result": "4 of 10"}]}
{"smiles": "COc1cccc2c1C(=O)c1c(O)c3c(c(O)c1C2=O)C[C@@](O)(C(=O)CO)C[C@@H]3OC1CC(N)C(O)C(C)O1", "note": "(stereo partly specified)", "values": [{"measurement": "survivor count", "setting": "[1]", "result": "5 of 10"}, {"measurement": "survivor count", "setting": "[2]", "result": "4 of 10"}, {"measurement": "survivor count", "setting": "[3]", "result": "4 of 10"}, {"measurement": "survivor count", "setting": "[4]", "result": "6 of 10"}, {"measurement": "T/C", "setting": "dose: 3.0 mg/kg/injection, schedule: Q01DX009 (sc), vehicle: saline", "result": "126 % of control"}, {"measurement": "T/C", "setting": "dose: 4.0 mg/kg/injection, schedule: Q01DX009 (sc), vehicle: saline, evaluated on day 30", "result": "128 [9 of 10 alive] and 139 % of control"}, {"measurement": "T/C", "setting": "dose: 4.0 mg/kg/injection, schedule: Q01DX009 (sc), vehicle: saline, evaluated on day 45", "result": "120 % of control"}, {"measurement": "survivor count", "setting": "[5]", "result": "6 of 10"}, {"measurement": "T/C", "setting": "dose: 6.0 mg/kg/injection, schedule: Q01DX009 (sc), vehicle: saline", "result": "125 % of control"}, {"measurement": "survivor count", "setting": "dose: 8.0 mg/kg/injection, schedule: Q01DX009 (ip), vehicle: saline", "result": "8 of 10 and 10 of 10"}]}
{"smiles": "O=c1[nH]c(=O)n(C2CC(O)C(CO)O2)cc1F", "note": "(stereo unspecified)", "values": [{"measurement": "T/C", "setting": "dose: 40.0 mg/kg/injection, schedule: Q01DX009 (ip), vehicle: saline", "result": "128 % of control"}, {"measurement": "T/C", "setting": "dose: 40.0 mg/kg/injection, schedule: Q01DX009 (sc), vehicle: saline", "result": "134 % of control"}, {"measurement": "T/C", "setting": "dose: 60.0 mg/kg/injection, schedule: Q01DX009 (sc), vehicle: saline", "result": "132 % of control"}, {"measurement": "T/C", "setting": "dose: 62.5 mg/kg/injection, schedule: Q01DX006 (ip), vehicle: saline", "result": "125 % of control"}, {"measurement": "T/C", "setting": "dose: 62.5 mg/kg/injection, schedule: Q01DX009 (ip), vehicle: saline", "result": "125 % of control"}, {"measurement": "T/C", "setting": "dose: 62.5 mg/kg/injection, schedule: Q02DX005 (ip), vehicle: saline", "result": "125 % of control"}, {"measurement": "T/C", "setting": "dose: 78.0 mg/kg/injection, schedule: Q01DX Z (sc), vehicle: saline", "result": "129 % of control"}, {"measurement": "T/C", "setting": "dose: 80.0 mg/kg/injection, schedule: Q01DX009 (ip), vehicle: saline", "result": "130 % of control"}, {"measurement": "T/C", "setting": "dose: 80.0 mg/kg/injection, schedule: Q01DX009 (sc), vehicle: saline, evaluated on day 30", "result": "143 % of control"}, {"measurement": "T/C", "setting": "dose: 80.0 mg/kg/injection, schedule: Q01DX009 (sc), vehicle: saline, evaluated on day 45", "result": "125 % of control"}, {"measurement": "T/C", "setting": "dose: 125.0 mg/kg/injection, schedule: Q01DX006 (ip), vehicle: saline", "result": "137 % of control"}, {"measurement": "T/C", "setting": "dose: 250.0 mg/kg/injection, schedule: Q01DX001 (ip), vehicle: saline", "result": "125 % of control"}, {"measurement": "T/C", "setting": "dose: 250.0 mg/kg/injection, schedule: Q04DX003 (ip), vehicle: saline", "result": "125 % of control"}, {"measurement": "T/C", "setting": "dose: 500.0 mg/kg/injection, schedule: Q01DX001 (ip), vehicle: saline", "result": "137 % of control"}]}
{"smiles": "NC(=O)c1ncn2c(=O)n(CCCl)nnc12", "values": [{"measurement": "T/C", "setting": "dose: 3.12 mg/kg/injection, schedule: Q01DX009 (ip), vehicle: suspension in saline", "result": "147 % of control"}]}
{"smiles": "COc1cc([C@@H]2c3cc4c(c(O)c3C[C@H]3COC(=O)[C@@H]32)OCO4)cc(OC)c1OC", "values": [{"measurement": "survivor count", "setting": "dose: 5.0 mg/kg/injection, schedule: Q01DX Z (sc), vehicle: methylcellulose (MC)", "result": "0 of 10"}, {"measurement": "survivor count", "setting": "dose: 8.4 mg/kg/injection, schedule: Q01DX Z (sc), vehicle: methylcellulose (MC)", "result": "0 of 10"}, {"measurement": "survivor count", "setting": "dose: 14.0 mg/kg/injection, schedule: Q01DX Z (sc), vehicle: methylcellulose (MC)", "result": "2 of 10"}, {"measurement": "survivor count", "setting": "dose: 23.0 mg/kg/injection, schedule: Q01DX Z (sc), vehicle: methylcellulose (MC)", "result": "0 of 10"}, {"measurement": "survivor count", "setting": "dose: 39.0 mg/kg/injection, schedule: Q01DX Z (sc), vehicle: methylcellulose (MC)", "result": "3 of 10"}, {"measurement": "survivor count", "setting": "dose: 65.0 mg/kg/injection, schedule: Q01DX Z (sc), vehicle: methylcellulose (MC)", "result": "3 of 10"}, {"measurement": "survivor count", "setting": "[6]", "result": "2 of 10"}]}
{"smiles": "Nc1nc2ncn(O)c2c(=O)[nH]1", "values": [{"measurement": "survivor count", "setting": "dose: 34.72 mg/kg/injection, schedule: Q01DX009 (ip), vehicle: other", "result": "6 of 6"}]}
